Source: PubChem BioAssay AID1439 (NMMLSC, 2008)
The campaign covered roughly 220,000 compounds. About 770 (0.35%) were called active. The shares of active, inactive and inconclusive entries below differ from those in the screen. No stated cut-off is given here; in the data, active means binding response below about 49% or above about 150%; inconclusive means no clear call, values can overlap the other calls; inactive means in between.

Sequences of proteins named here, by UniProt entry; tags and fusion partners are left off.
UniProt P09471, whole entry, looked up: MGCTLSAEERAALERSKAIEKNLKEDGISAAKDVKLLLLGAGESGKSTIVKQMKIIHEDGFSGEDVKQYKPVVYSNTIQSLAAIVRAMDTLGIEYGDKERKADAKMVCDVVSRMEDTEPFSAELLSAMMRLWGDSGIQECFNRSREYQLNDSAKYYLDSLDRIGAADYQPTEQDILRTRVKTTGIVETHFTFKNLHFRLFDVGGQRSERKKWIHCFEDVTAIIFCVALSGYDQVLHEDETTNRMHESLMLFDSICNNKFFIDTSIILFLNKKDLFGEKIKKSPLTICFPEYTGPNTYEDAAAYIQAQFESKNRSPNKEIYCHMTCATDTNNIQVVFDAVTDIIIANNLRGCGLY

biological target: Guanine nucleotide-binding protein G(o) subunit alpha (Homo sapiens) (UniProt P09471); assay: RGS7-Galphao binding modulators, primary screen, biochemical, multiplexed bead flow cytometry (AID 1439); settings: at 10 µM, actives lie on both sides;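 further: fluorescent Galphao held in activated GDP-AlF4 state binding bead-coupled RGS7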

Compound | binding response (% of control)
O=C(O)c1ccccc1/C=N/Nc1ccc(S(=O)(=O)N2CCCC2)cc1[N+](=O)[O-] | inconclusive: 114%
CN(C)c1ccc(-n2cccc2)cc1 | inconclusive: -87.9%
N#C/C(=C/c1ccc(-c2cc([N+](=O)[O-])ccc2Cl)o1)C(N)=O | inconclusive: 40.5%
CCOC(=O)c1[nH]c2cc3c(cc2c1NC(=O)CN1CCN(CCO)CC1)OCO3 | inconclusive: 78.7%
COc1ccc(-c2nnsc2N2C(=O)c3ccccc3C2=O)cc1 | inconclusive: -177%
Cc1nc(Sc2ccc(Br)cc2)c(C#N)c(C)c1[N+](=O)[O-] | inconclusive: 93.7%
Cc1occc(=O)c1OCc1ccccc1 | inconclusive: 115%
Cc1nnc(N(Cc2ccco2)C(=O)c2ccc(C#N)cc2)s1 | inactive: 98.8%
CCOCCCn1c(SC(C(=O)Nc2cc(C)ccc2C)c2ccccc2)nnc1-c1ccc(Cl)cc1 (configuration not stated) | inactive: 97.9%
CC(=O)c1ccc(NC(=O)C2CC(=O)Nc3nc4ccccc4n32)cc1 (configuration not stated) | inconclusive: 73.3%
O=C(NCc1ccco1)/C(=C\c1ccco1)NC(=O)c1ccco1 | inconclusive: 161%
S=C1Nc2cc(Cl)ccc2Sc2ccccc21 | inactive: 100%
COc1ccccc1OCCN(C#N)c1nc(N(C)C)nc(N(C)C)n1 | inactive: 125%
CC(/C=N/NC(=O)c1cc(C2CC2)[nH]n1)=C\c1ccccc1 | inconclusive: 86%
CCc1ccc(/C=N\n2cnnc2)cc1 | inconclusive: 122%
CCn1c(CC(=O)Nc2ccc(C)cc2)nnc1SCC(=O)NCCc1ccccc1 | inactive: 111%
CC(C(=O)Nc1ccc([N+](=O)[O-])cc1)N1CCN(C/C=C/c2ccccc2)CC1 (configuration not stated) | inactive: 98.9%
O=Cc1ccc(OCC(=O)Nc2ccccc2C(F)(F)F)cc1 | inconclusive: 98.7%
CCCCOc1ccc(CCC(=O)N/N=C/c2ccco2)cc1 | inconclusive: 146%
CCC(=O)NC(c1ccc(N(C)C)cc1)c1c(O)ccc2ccccc12 (configuration not stated) | inconclusive: 104%
O=C(Cc1n[nH]c(=O)c2ccccc12)OCc1c(Cl)cccc1Cl | inconclusive: 128%
CC1CC(C)CN(CCC(=O)Nc2ccc3c(c2)CCC3)C1 (configuration not stated) | inactive: 104%
N#Cc1ccc(NC(=O)c2cc(=O)c3ccccc3o2)cc1 | inconclusive: 94.8%
CCCCN1CC(O)=C(c2nc3ccccc3s2)C1=N | inactive: 133%

Compound | binding response (% of control)
Cc1ccc(CN2C(=NC(=O)CCC(=O)O)SC3CS(=O)(=O)CC32)cc1 (configuration not stated) | inconclusive: 79.1%
COc1ccc(Br)c(-c2nc(CS(=O)(=O)c3ccc(F)cc3)no2)c1 | inconclusive: 332%
CCN(CC)S(=O)(=O)c1ccc(/C=C/C(=O)OCC(=O)c2c(N)n(C)c(=O)n(C)c2=O)cc1 | inconclusive: 95.2%
Cc1ccc(NC(=O)Cn2cnc3cc([N+](=O)[O-])ccc3c2=O)c(Cl)c1 | inconclusive: 89.3%
Fc1ccc(NC(=S)NC2CC3CCC(C2)N3Cc2ccco2)cc1 (configuration not stated) | inconclusive: 91%
Cn1cnnc1SCC(=O)Nc1cc(S(=O)(=O)N2CCCCC2)ccc1Cl | inconclusive: -5.13%
O=C(O)c1ccc2c(=O)n(-c3ccccc3)c(=S)[nH]c2c1 | inconclusive: 106%
Nc1nc(Nc2ccccc2Cl)cc(=O)[nH]1 | inconclusive: 99.2%
CC(=O)Nc1ccc(NC(=O)COc2ccccc2C(=O)Nc2cccc(Cl)c2Cl)cc1 | inactive: 94.1%
CN1CCN(CCC(=O)Nc2ccc(Br)cc2)CC1 | inactive: 98.8%
Cc1c(O)ccc2c(=O)c(-c3nncn3-c3ccccc3)coc12 | inconclusive: 111%
CCCCn1c(N)c(N2CCOCC2)c(=O)n(CC(=O)NC(C)c2ccccc2)c1=O (configuration not stated) | inconclusive: 82%
O=S(=O)(Cc1ccccc1Cl)c1ncn[nH]1 | inconclusive: 100%
O=C(c1cc2ccc([N+](=O)[O-])cc2oc1=O)N1CCOCC1 | inactive: 104%
CC(C)CNc1nc(NC(C)(C)C)nc(Oc2ccc(=O)[nH]n2)n1 | inconclusive: 108%
CCc1ccc(NC(=O)CN2C(=O)C(=O)N(Cc3ccccc3)C2=O)cc1 | inconclusive: 116%
O=c1[nH]c(CSc2ncnc3sccc23)nc2ccccc12 | inconclusive: 90.5%
CCCN(CCC)CC(O)COc1ccccc1C(=O)Nc1ccccc1 (configuration not stated) | inconclusive: 79.3%
O=C(NCC1CCCO1)c1cc2ccccc2nc1Cl (configuration not stated) | inconclusive: 107%
CC1(c2nnc(Cc3ccccc3)o2)CC(c2cccc(Cl)c2)=NO1 (configuration not stated) | inconclusive: 99.1%
COc1ccc(-c2ncnc(C(F)(F)F)c2-c2csc(C)n2)c(O)c1 | inconclusive: 123%
CCOc1cc(N2CCOCC2)c(OCC)cc1NC(=O)Cc1ccccc1 | inconclusive: 122%
O=c1[nH]c2cc3c(cc2cc1CN(CCO)S(=O)(=O)c1ccccc1)OCCO3 | inconclusive: 112%

8 successive compounds already listed, for reference:
Compound | binding response (% of control)
COc1ccc(-c2nnsc2N2C(=O)c3ccccc3C2=O)cc1 | inconclusive: -177%
Cc1nc(Sc2ccc(Br)cc2)c(C#N)c(C)c1[N+](=O)[O-] | inconclusive: 93.7%
Cc1occc(=O)c1OCc1ccccc1 | inconclusive: 115%
Cc1nnc(N(Cc2ccco2)C(=O)c2ccc(C#N)cc2)s1 | inactive: 98.8%
CCOCCCn1c(SC(C(=O)Nc2cc(C)ccc2C)c2ccccc2)nnc1-c1ccc(Cl)cc1 (configuration not stated) | inactive: 97.9%
CC(=O)c1ccc(NC(=O)C2CC(=O)Nc3nc4ccccc4n32)cc1 (configuration not stated) | inconclusive: 73.3%
O=C(NCc1ccco1)/C(=C\c1ccco1)NC(=O)c1ccco1 | inconclusive: 161%
S=C1Nc2cc(Cl)ccc2Sc2ccccc21 | inactive: 100%
